One assay deals with T1, GFP-SLR1 (rice) (UniProt Q7G7J6).
T1 sequence: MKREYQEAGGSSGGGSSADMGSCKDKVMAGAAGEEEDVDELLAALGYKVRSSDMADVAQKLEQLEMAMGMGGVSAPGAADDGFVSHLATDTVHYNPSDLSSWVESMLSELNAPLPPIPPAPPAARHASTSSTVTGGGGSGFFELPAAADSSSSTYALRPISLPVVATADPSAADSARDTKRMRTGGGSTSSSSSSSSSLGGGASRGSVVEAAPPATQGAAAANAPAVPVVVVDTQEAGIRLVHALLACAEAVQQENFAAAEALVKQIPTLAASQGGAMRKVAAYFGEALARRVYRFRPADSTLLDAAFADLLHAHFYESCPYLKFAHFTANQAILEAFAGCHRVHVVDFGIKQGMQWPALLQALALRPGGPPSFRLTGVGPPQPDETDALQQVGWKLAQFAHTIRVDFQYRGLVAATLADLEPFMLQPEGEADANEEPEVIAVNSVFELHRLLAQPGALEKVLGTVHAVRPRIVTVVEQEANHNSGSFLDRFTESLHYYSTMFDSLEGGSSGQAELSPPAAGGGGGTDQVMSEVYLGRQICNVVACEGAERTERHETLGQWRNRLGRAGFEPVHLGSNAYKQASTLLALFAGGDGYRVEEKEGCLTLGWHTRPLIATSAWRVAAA
In words: co-IP; rice protoplasts co-transformed with 6xMyc- and GFP-tagged constructs, 10 h in the dark at 28°C; IP buffer 25 mM Tris-HCl pH 7.5, 150 mM NaCl, 0.5 % Triton X-100, 1 mM EDTA, 1 mM DTT; GFP or Myc antibody and Protein G agarose beads; western blot with the other antibody. In general terms: In western blotting, separated proteins are transferred to a membrane and probed.

For assay [1], the target named is T2, nYFP-SLR1 (rice (Oryza sativa cv. Dongjin)) (UniProt Q7G7J6).
T2 sequence: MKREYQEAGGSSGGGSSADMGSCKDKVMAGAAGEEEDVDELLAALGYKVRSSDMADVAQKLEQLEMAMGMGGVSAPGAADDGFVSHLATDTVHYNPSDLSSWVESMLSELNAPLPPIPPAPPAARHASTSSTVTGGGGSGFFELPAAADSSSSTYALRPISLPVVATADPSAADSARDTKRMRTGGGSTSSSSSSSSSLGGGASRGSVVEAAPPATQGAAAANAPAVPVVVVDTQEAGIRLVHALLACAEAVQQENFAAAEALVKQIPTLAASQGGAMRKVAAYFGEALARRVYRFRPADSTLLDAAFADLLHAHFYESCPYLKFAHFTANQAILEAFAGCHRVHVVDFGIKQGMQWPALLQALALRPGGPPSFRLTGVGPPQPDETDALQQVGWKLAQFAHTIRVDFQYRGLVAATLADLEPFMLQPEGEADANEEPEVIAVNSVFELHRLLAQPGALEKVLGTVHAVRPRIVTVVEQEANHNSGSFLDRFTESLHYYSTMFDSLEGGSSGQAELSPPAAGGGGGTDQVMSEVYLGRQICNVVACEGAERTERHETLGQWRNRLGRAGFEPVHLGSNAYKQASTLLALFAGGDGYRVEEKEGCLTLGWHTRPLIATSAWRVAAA
In words: split reporter; BiFC with nYFP and cYFP fusions in onion epidermal cells, tungsten particle bombardment; YFP signal by microscopy.

The target of a further assay is T3, 6xMyc-OsJAZ9 (rice) (UniProt Q6ZJU3).
T3 sequence: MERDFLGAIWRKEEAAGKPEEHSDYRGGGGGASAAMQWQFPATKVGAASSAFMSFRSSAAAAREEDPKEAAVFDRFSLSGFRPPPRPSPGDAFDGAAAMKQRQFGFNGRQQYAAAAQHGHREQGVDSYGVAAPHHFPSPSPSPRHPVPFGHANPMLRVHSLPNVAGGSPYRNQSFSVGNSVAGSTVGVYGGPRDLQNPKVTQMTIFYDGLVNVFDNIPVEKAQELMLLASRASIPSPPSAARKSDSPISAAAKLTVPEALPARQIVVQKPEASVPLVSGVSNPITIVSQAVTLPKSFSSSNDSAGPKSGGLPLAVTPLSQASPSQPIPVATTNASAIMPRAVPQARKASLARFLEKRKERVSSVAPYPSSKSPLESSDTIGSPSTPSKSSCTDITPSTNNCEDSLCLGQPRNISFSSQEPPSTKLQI
In words: co-IP; rice protoplasts co-transformed with 6xMyc- and GFP-tagged constructs, 10 h in the dark at 28°C; IP buffer 25 mM Tris-HCl pH 7.5, 150 mM NaCl, 0.5 % Triton X-100, 1 mM EDTA, 1 mM DTT; GFP or Myc antibody and Protein G agarose beads; western blot with the other antibody.

Assay [2] concerns the target T4, OsJAZ9 (Jasmonate ZIM-domain protein 9) (rice (Oryza sativa cv. Dongjin)) (UniProt Q6ZJU3).
T4 sequence: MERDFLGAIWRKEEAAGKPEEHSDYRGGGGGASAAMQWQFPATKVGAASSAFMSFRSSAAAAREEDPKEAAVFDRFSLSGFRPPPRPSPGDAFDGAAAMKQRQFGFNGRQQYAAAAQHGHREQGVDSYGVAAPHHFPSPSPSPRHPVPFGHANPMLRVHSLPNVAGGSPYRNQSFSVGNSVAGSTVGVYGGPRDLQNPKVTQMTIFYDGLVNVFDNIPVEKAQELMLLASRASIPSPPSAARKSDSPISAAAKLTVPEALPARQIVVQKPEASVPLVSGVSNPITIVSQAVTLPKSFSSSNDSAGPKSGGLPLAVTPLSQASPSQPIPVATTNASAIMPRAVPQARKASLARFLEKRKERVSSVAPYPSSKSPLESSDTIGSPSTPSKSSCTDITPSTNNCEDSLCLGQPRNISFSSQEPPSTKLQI
In words: two-hybrid; Matchmaker Gold (Clontech), Y2H Gold yeast; JAZs as bait in pGBKT7, DELLAs as prey in pGADT7; growth on DDO (-Leu/-Trp) media with 250 ng/mL Aureobasidin A, 5 days in the dark at 30°C.

No constants are given. Whether binding was seen depends on the method and setting. For some assays here: In cells and extracts the contact can be indirect. Some entries that bind do so weakly or less than the wild type. For some assays here: Sequences can lack the tags named with a protein.

The values below come from PMC6305323.

B1: 6xMyc-OsJAZ9 (protein, UniProt Q6ZJU3 1-427)
chain: MERDFLGAIWRKEEAAGKPEEHSDYRGGGGGASAAMQWQFPATKVGAASSAFMSFRSSAAAAREEDPKEAAVFDRFSLSGFRPPPRPSPGDAFDGAAAMKQRQFGFNGRQQYAAAAQHGHREQGVDSYGVAAPHHFPSPSPSPRHPVPFGHANPMLRVHSLPNVAGGSPYRNQSFSVGNSVAGSTVGVYGGPRDLQNPKVTQMTIFYDGLVNVFDNIPVEKAQELMLLASRASIPSPPSAARKSDSPISAAAKLTVPEALPARQIVVQKPEASVPLVSGVSNPITIVSQAVTLPKSFSSSNDSAGPKSGGLPLAVTPLSQASPSQPIPVATTNASAIMPRAVPQARKASLARFLEKRKERVSSVAPYPSSKSPLESSDTIGSPSTPSKSSCTDITPSTNNCEDSLCLGQPRNISFSSQEPPSTKLQI
Consider B1, for which the binding result in the assay with GFP-SLR1 (rice) is “binds”.

B2: OsJAZ9-cYFP (protein, UniProt Q6ZJU3 1-427)
chain: MERDFLGAIWRKEEAAGKPEEHSDYRGGGGGASAAMQWQFPATKVGAASSAFMSFRSSAAAAREEDPKEAAVFDRFSLSGFRPPPRPSPGDAFDGAAAMKQRQFGFNGRQQYAAAAQHGHREQGVDSYGVAAPHHFPSPSPSPRHPVPFGHANPMLRVHSLPNVAGGSPYRNQSFSVGNSVAGSTVGVYGGPRDLQNPKVTQMTIFYDGLVNVFDNIPVEKAQELMLLASRASIPSPPSAARKSDSPISAAAKLTVPEALPARQIVVQKPEASVPLVSGVSNPITIVSQAVTLPKSFSSSNDSAGPKSGGLPLAVTPLSQASPSQPIPVATTNASAIMPRAVPQARKASLARFLEKRKERVSSVAPYPSSKSPLESSDTIGSPSTPSKSSCTDITPSTNNCEDSLCLGQPRNISFSSQEPPSTKLQI
With B2, in assay [1], the binding result was “binds”.

B3: GFP-OsbHLH148 (protein, UniProt Q75KV9 1-299)
chain: MQMESYYGAFHADEAAFFFPHHVPASPELPFGLIASPEPEPEPEQAAAEARQSAFQEYGGAVHAGAPAAAGAVTTGGTNIHRRVMDVLGRMGGGGGGGEKGEGEEMEEEEEVPQRRRRGQGADVESSRGFRHMMRERQRREKLSQSYADLYAMVSSRSKGDKNSIVQSAAIYIHELKVARDQLQRRNEELKAQIMGHDEQQPCVTVQFEVDEPSSSIDSMIAALRRLKGMSVKARGIRSSMSGNRLWTEMNVETTIAACEVEKAVEEALKEVERNQPDSDAPFPGSKGWTQTSHVQNVF
In the case of B3, the binding entry with 6xMyc-OsJAZ9 (rice) is listed as “binds”.

B4: GFP-SLR1 (protein, UniProt Q7G7J6 1-625)
chain: MKREYQEAGGSSGGGSSADMGSCKDKVMAGAAGEEEDVDELLAALGYKVRSSDMADVAQKLEQLEMAMGMGGVSAPGAADDGFVSHLATDTVHYNPSDLSSWVESMLSELNAPLPPIPPAPPAARHASTSSTVTGGGGSGFFELPAAADSSSSTYALRPISLPVVATADPSAADSARDTKRMRTGGGSTSSSSSSSSSLGGGASRGSVVEAAPPATQGAAAANAPAVPVVVVDTQEAGIRLVHALLACAEAVQQENFAAAEALVKQIPTLAASQGGAMRKVAAYFGEALARRVYRFRPADSTLLDAAFADLLHAHFYESCPYLKFAHFTANQAILEAFAGCHRVHVVDFGIKQGMQWPALLQALALRPGGPPSFRLTGVGPPQPDETDALQQVGWKLAQFAHTIRVDFQYRGLVAATLADLEPFMLQPEGEADANEEPEVIAVNSVFELHRLLAQPGALEKVLGTVHAVRPRIVTVVEQEANHNSGSFLDRFTESLHYYSTMFDSLEGGSSGQAELSPPAAGGGGGTDQVMSEVYLGRQICNVVACEGAERTERHETLGQWRNRLGRAGFEPVHLGSNAYKQASTLLALFAGGDGYRVEEKEGCLTLGWHTRPLIATSAWRVAAA
Take B4: the binding entry in the assay with 6xMyc-OsJAZ9 (rice) is “binds”.

B5: SLR1G (domain or fragment, UniProt Q7G7J6 232-621)
chain: VDTQEAGIRLVHALLACAEAVQQENFAAAEALVKQIPTLAASQGGAMRKVAAYFGEALARRVYRFRPADSTLLDAAFADLLHAHFYESCPYLKFAHFTANQAILEAFAGCHRVHVVDFGIKQGMQWPALLQALALRPGGPPSFRLTGVGPPQPDETDALQQVGWKLAQFAHTIRVDFQYRGLVAATLADLEPFMLQPEGEADANEEPEVIAVNSVFELHRLLAQPGALEKVLGTVHAVRPRIVTVVEQEANHNSGSFLDRFTESLHYYSTMFDSLEGGSSGQAELSPPAAGGGGGTDQVMSEVYLGRQICNVVACEGAERTERHETLGQWRNRLGRAGFEPVHLGSNAYKQASTLLALFAGGDGYRVEEKEGCLTLGWHTRPLIATSAWR
In the case of B5, the binding entry in assay [2] was “binds”.
